According to PubChem BioAssay AID330 (DTP/NCI, 2004):
The list is a part of this screen's results and no random one: it gathers some chemical classes. Not every dose and run of a compound is shown. T/C is the treated group as % of the vehicle group. Where survival is the endpoint, the PubChem record calls one and a half times the control and up active, and a quarter to a half above the control has no call in these data; cut-offs in other NCI protocols can differ. Schedule codes are those of the source, taken here to give the interval after Q, in days (D) or hours (H), and the number of doses after X. Some entries show no survivor count and are marked so; the dose need not have been tolerated. Some entries hold several experiments; their values stand side by side, smallest first.

Test system: P388 leukemia ip, CD2F1 mice, survival T/C
Experiment: NCI In Vivo Anticancer Drug Screen. Data for tumor model P388 Leukemia (intraperitoneal) in CD2F1 (CDF1) mice
Conditions: T/C endpoint: median survival time, higher T/C = longer survival
[1] = dose: 2.5 mg/kg/injection, schedule: Q04DX002 (ip), vehicle: water
[2] = dose: 5.0 mg/kg/injection, schedule: Q04DX002 (ip), vehicle: water
[3] = dose: 10.0 mg/kg/injection, schedule: Q04DX002 (ip), vehicle: water
[4] = dose: 20.0 mg/kg/injection, schedule: Q04DX002 (ip), vehicle: water
[5] = dose: 0.31 mg/kg/injection, schedule: Q01DX009 (ip), vehicle: saline + alcohol
[6] = dose: 0.62 mg/kg/injection, schedule: Q01DX009 (ip), vehicle: saline + alcohol
[7] = dose: 1.25 mg/kg/injection, schedule: Q01DX009 (ip), vehicle: saline + alcohol, evaluated on day 45
[8] = dose: 2.5 mg/kg/injection, schedule: Q01DX009 (ip), vehicle: saline + alcohol

Structure (SMILES): CNC1C2OC3C=C(C)CCC3(COC(C)=O)C(C)(C1O)C21CO1 (stereo not drawn)
- T/C [1]: 119 % of control [survivor count not shown]
- T/C [2]: 126 [survivor count not shown] and 128 % of control [survivor count not shown]
- T/C [3]: 123 [survivor count not shown] and 135 % of control [survivor count not shown]
- T/C [4]: 135 [survivor count not shown] and 136 % of control [survivor count not shown]
- T/C (dose: 40.0 mg/kg/injection, schedule: Q04DX002 (ip), vehicle: water): 144 % of control [survivor count not shown]

Structure (SMILES): CC1CCOC(=O)/C=C/C=C/C(=O)OC2CC3OC4C5OC5(C)C(O)CC4(COC(=O)C1O)C2(C)C31CO1 (stereo not drawn)
- T/C (dose: 0.16 mg/kg/injection, schedule: Q01DX009 (ip), vehicle: saline + alcohol): 157 % of control [survivor count not shown]
- T/C [5]: 160 % of control [survivor count not shown]
- T/C [6]: 166 % of control [survivor count not shown]
- T/C (dose: 1.25 mg/kg/injection, schedule: Q01DX009 (ip), vehicle: saline + alcohol, evaluated on day 35): 201 % of control [survivor count not shown]
- T/C [7]: 150 % of control [survivor count not shown]
- T/C (dose: 2.5 mg/kg/injection, schedule: Q01DX009 (ip), vehicle: saline + alcohol, evaluated on day 35): 192 % of control [survivor count not shown]
- T/C (dose: 2.5 mg/kg/injection, schedule: Q01DX009 (ip), vehicle: saline + alcohol, evaluated on day 45): 175 % of control [survivor count not shown]
- T/C (dose: 5.0 mg/kg/injection, schedule: Q01DX009 (ip), vehicle: saline + alcohol, evaluated on day 35): 238 % of control [survivor count not shown]
- T/C (dose: 5.0 mg/kg/injection, schedule: Q01DX009 (ip), vehicle: saline + alcohol, evaluated on day 45): 222 % of control [survivor count not shown]
- T/C (dose: 10.0 mg/kg/injection, schedule: Q01DX009 (ip), vehicle: saline + alcohol, evaluated on day 35): 284 % of control [survivor count not shown]
- T/C (dose: 10.0 mg/kg/injection, schedule: Q01DX009 (ip), vehicle: saline + alcohol, evaluated on day 45): 203 % of control [survivor count not shown]
- T/C (dose: 20.0 mg/kg/injection, schedule: Q01DX009 (ip), vehicle: saline + alcohol): 321 % of control [survivor count not shown]

Structure (SMILES): C#CCNC1C2OC3C=C(C)CCC3(COC(C)=O)C(C)(C1O)C21CO1 (stereo not drawn)
- T/C (dose: 1.25 mg/kg/injection, schedule: Q04DX002 (ip), vehicle: water): 102 % of control [survivor count not shown]
- T/C [1]: 112 % of control [survivor count not shown]
- T/C [2]: 114 [survivor count not shown] and 119 % of control [survivor count not shown]
- T/C [3]: 123 [survivor count not shown] and 128 % of control [survivor count not shown]
- T/C [4]: 116 [survivor count not shown] and 123 % of control [survivor count not shown]

Structure (SMILES): CC(O)C1/C=C/C=C/C(=O)OC2CC3OC4C5OC5(C)CCC4(COC(=O)C(O)C(C)CCO1)C2(C)C31CO1 (stereo not drawn)
- T/C (dose: 0.15 mg/kg/injection, schedule: Q01DX009 (ip), vehicle: saline + alcohol): 124 % of control [survivor count not shown]
- T/C [5]: 133 % of control [survivor count not shown]
- T/C [6]: 147 % of control [survivor count not shown]
- T/C (dose: 1.25 mg/kg/injection, schedule: Q01DX009 (ip), vehicle: saline + alcohol): 157 % of control [survivor count not shown]
- T/C [8]: 171 % of control [survivor count not shown]
- T/C (dose: 5.0 mg/kg/injection, schedule: Q01DX009 (ip), vehicle: saline + alcohol): 186 % of control [survivor count not shown]
- T/C (dose: 10.0 mg/kg/injection, schedule: Q01DX009 (ip), vehicle: saline + alcohol): 205 % of control [survivor count not shown]

Structure (SMILES): CC(O)C1/C=C/C=C/C(=O)OC2CC3OC4C=C(CO)CCC4(COC(=O)C(O)C(C)CCO1)C2(C)C31CO1 (stereo not drawn)
- T/C (dose: 0.08 mg/kg/injection, schedule: Q01DX009 (ip), vehicle: saline + alcohol): 137 % of control [survivor count not shown]
- T/C (dose: 0.16 mg/kg/injection, schedule: Q01DX009 (ip), vehicle: saline + alcohol, evaluated on day 30): 141 % of control [survivor count not shown]
- T/C (dose: 0.16 mg/kg/injection, schedule: Q01DX009 (ip), vehicle: saline + alcohol, evaluated on day 45): 185 % of control [survivor count not shown]
- T/C (dose: 0.31 mg/kg/injection, schedule: Q01DX009 (ip), vehicle: saline + alcohol, evaluated on day 30): 159 % of control [survivor count not shown]
- T/C (dose: 0.31 mg/kg/injection, schedule: Q01DX009 (ip), vehicle: saline + alcohol, evaluated on day 45): 240 % of control [survivor count not shown]
- T/C (dose: 0.62 mg/kg/injection, schedule: Q01DX009 (ip), vehicle: saline + alcohol, evaluated on day 30): 206 % of control [survivor count not shown]
- T/C (dose: 0.62 mg/kg/injection, schedule: Q01DX009 (ip), vehicle: saline + alcohol, evaluated on day 45): 212 % of control [survivor count not shown]
- T/C (dose: 1.25 mg/kg/injection, schedule: Q01DX009 (ip), vehicle: saline + alcohol, evaluated on day 30): 258 % of control [survivor count not shown]
- T/C [7]: 166 % of control [survivor count not shown]
- T/C [8]: 87 % of control [survivor count not shown]

Structure (SMILES): CC1=C[C@H]2O[C@@H]3C[C@H]4OC(=O)/C=C\C=C\C(C(C)O)OCC(O)C(C)CC(=O)OC[C@@]2(C[C@@H]1O)[C@]4(C)[C@@]31CO1 (stereo partly drawn)
- T/C (dose: 0.25 mg/kg/injection, schedule: Q01DX009 (ip), vehicle: Klucel (hydroxypropylcellulose) (HPC)): 155 % of control [survivor count not shown]
- T/C (dose: 0.31 mg/kg/injection, schedule: Q01DX009 (ip), vehicle: Klucel (hydroxypropylcellulose) (HPC)): 172 % of control [survivor count not shown]
- T/C (dose: 0.5 mg/kg/injection, schedule: Q01DX009 (ip), vehicle: Klucel (hydroxypropylcellulose) (HPC)): 129 % of control [survivor count not shown]
- T/C (dose: 0.63 mg/kg/injection, schedule: Q01DX009 (ip), vehicle: Klucel (hydroxypropylcellulose) (HPC)): 173 % of control [survivor count not shown]
- T/C (dose: 1.0 mg/kg/injection, schedule: Q01DX009 (ip), vehicle: Klucel (hydroxypropylcellulose) (HPC)): 163 % of control [survivor count not shown]
- T/C (dose: 7.5 micrograms/kg/injection, schedule: Q01DX009 (ip), vehicle: saline + alcohol): 102 % of control [survivor count not shown]
- T/C (dose: 15.0 micrograms/kg/injection, schedule: Q01DX009 (ip), vehicle: saline + alcohol): 124 % of control [survivor count not shown]
- T/C (dose: 31.0 micrograms/kg/injection, schedule: Q01DX009 (ip), vehicle: saline + alcohol): 138 % of control [survivor count not shown]
- T/C (dose: 62.0 micrograms/kg/injection, schedule: Q01DX009 (ip), vehicle: saline + alcohol): 142 % of control [survivor count not shown]
- T/C (dose: 125.0 micrograms/kg/injection, schedule: Q01DX009 (ip), vehicle: saline + alcohol): 161 % of control [survivor count not shown]
- T/C (dose: 250.0 micrograms/kg/injection, schedule: Q01DX009 (ip), vehicle: saline + alcohol): 180 % of control [survivor count not shown]
- T/C (dose: 312.0 micrograms/kg/injection, schedule: Q01DX009 (ip), vehicle: Klucel (hydroxypropylcellulose) (HPC)): 142 % of control [survivor count not shown]
- T/C (dose: 500.0 micrograms/kg/injection, schedule: Q01DX009 (ip), vehicle: saline + alcohol): 196 % of control [survivor count not shown]
- T/C (dose: 625.0 micrograms/kg/injection, schedule: Q01DX009 (ip), vehicle: Klucel (hydroxypropylcellulose) (HPC)): 149 % of control [survivor count not shown]
- T/C (dose: 1000.0 micrograms/kg/injection, schedule: Q01DX009 (ip), vehicle: saline + alcohol): 214 % of control [survivor count not shown]

Structure (SMILES): CC(=O)OC[C@]12CCC(C)=C[C@H]1O[C@H]1C(=O)[C@@H](OC(C)=O)[C@@]2(C)[C@]12CO2
- T/C (dose: 0.5 mg/kg/injection, schedule: Q01DX009 (ip), vehicle: saline + alcohol): 141 [survivor count not shown] and 151 % of control [survivor count not shown]
- T/C (dose: 1.0 mg/kg/injection, schedule: Q01DX009 (ip), vehicle: saline + alcohol): 147 [survivor count not shown] and 156 % of control [survivor count not shown]
- T/C (dose: 2.0 mg/kg/injection, schedule: Q01DX009 (ip), vehicle: saline + alcohol): 181 [survivor count not shown] and 184 % of control [survivor count not shown]
- T/C (dose: 4.0 mg/kg/injection, schedule: Q01DX009 (ip), vehicle: saline + alcohol): 192 % of control [survivor count not shown]
